At least one structure is not confirmed: it was looked up by name or label, or the drawing left a doubt.
Test system: volatile organic compounds (VOCs)
Experiment: SPME-GC-MS of volatile organic compounds (VOCs) in saliva fermentation
Assay type: cell-based, halitosis subjects (saliva)
Method: Fresh saliva was collected from 10 halitosis subjects (Halimeter index >120). Subjects were required not to consume any food or drink for 2 hours before donating saliva. Saliva was directly spat into a saliva collection tube, 5 ml per person, and mixed. The mixture was centrifuged at 4500 rpm for 10 minutes, and the supernatant was collected, aliquoted, and stored at -80°C for subsequent experimental studies.
(§1) Lysate group: In a headspace vial, 100 µl of saliva was added first, followed by separate addition of ET-22 viable bacteria (1.0×10^9 CFU/ml), ET-22 heat-inactivated bacterial cells (obtained by inactivating viable bacteria at 1.0×10^9 CFU/ml), and lysate (obtained by inactivating and then filtering viable bacteria at 1.0×10^9 CFU/ml), each at 100µl. Then, 800 µl of SHI medium was added. After filling with nitrogen, anaerobic cultivation was performed for 10 hours for loading on machine, and then SPME-GC-MS was used to test the change in content of volatile organic compound.
as §1, with “NAD group:” for “Lysate group:”, “by the” for “by”, “by heat-inactivating” for “by inactivating”, “and NAD (100 µg/ml),” for “and lysate (obtained by inactivating and then filtering viable bacteria at 1.0×10^9 CFU/ml),”, “machine,” for “machine, and”, “the changes” for “the change”
2-hydroxy-3-phenylpropionic acid group: In a headspace vial, 100 µl of saliva was added first, followed by the separate addition of ET-22 viable bacteria (1.0×10^9 CFU/ml), ET-22 heat-inactivated bacterial cells (obtained by heat-inactivating viable bacteria at 1.0×10^9 CFU/ml), and 2-hydroxy-3-phenylpropionic acid (100 µg/ml), each at 100µl. […]
Helium was used as a carrier gas, with a rate remaining at 1.1 mL min-1. […] The flavor characteristic of each compound was determined based on data from the Good Scents Company Information System (http://www.thegoodscentscompany.com).

NC(=O)c1ccc[n+]([C@@H]2O[C@H](COP(=O)([O-])OP(=O)(O)OC[C@H]3O[C@@H](n4cnc5c(N)ncnc54)[C@H](O)[C@@H]3O)[C@@H](O)[C@H]2O)c1 [NAD, Nicotinamide adenine dinucleotide (NAD)]
significantly decreases: number of acid compounds (VOCs) (100 µg/ml, 10 hours) | number of flavor-active acid compounds (among 71 aroma-active VOCs, 100 µg/ml) | number of alkane compounds (VOCs) (pure components 100 µg/ml, peptidoglycan from 1.0×10^9 CFU/ml, 10 hours)
